Results are given in words; binding and its absence hold for the method and conditions named. In cells and extracts the contact can be indirect. Some entries that bind do so weakly or less than the wild type. For part of these data: Where a sequence is shown, tags or fusion partners need not be part of it. One block for each substance: values may come before it.
Assays:
[1] = target: HA-tagged murine mDia1 full length (murine) (UniProt O08808); test: co-IP; 293T cells transiently transfected with HA-tagged mDia1 and FLAG- or 3xFLAG-tagged mDia2 constructs (full length or truncated); lysate in IP buffer (50mM HEPES pH7.6, 250mM NaCl, 5mM EDTA, 0.1% NP40) on anti-HA or anti-FLAG magnetic beads, 4°C overnight, 6 washes; Western blot
[2] = target: T1, mDia2 DAD domain (amino acids 1033-1171) tagged with C-terminal 3xFLAG (murine) (UniProt Q9Z207); test: co-IP; 293T cells expressing HA-tagged mDia1 construct (stably, by the legend) transfected with mDia2 full length or DAD with C-terminal 3xFLAG; anti-FLAG immunoprecipitation, immunoblot
T1 sequence: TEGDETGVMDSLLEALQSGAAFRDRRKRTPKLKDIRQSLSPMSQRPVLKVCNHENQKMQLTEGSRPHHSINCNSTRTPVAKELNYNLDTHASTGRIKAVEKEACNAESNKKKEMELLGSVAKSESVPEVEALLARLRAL

Amino acid sequences for entries named in this document (tags omitted). A change or cut given only in a name is not applied to a line headed by its entry.
UniProt O08808: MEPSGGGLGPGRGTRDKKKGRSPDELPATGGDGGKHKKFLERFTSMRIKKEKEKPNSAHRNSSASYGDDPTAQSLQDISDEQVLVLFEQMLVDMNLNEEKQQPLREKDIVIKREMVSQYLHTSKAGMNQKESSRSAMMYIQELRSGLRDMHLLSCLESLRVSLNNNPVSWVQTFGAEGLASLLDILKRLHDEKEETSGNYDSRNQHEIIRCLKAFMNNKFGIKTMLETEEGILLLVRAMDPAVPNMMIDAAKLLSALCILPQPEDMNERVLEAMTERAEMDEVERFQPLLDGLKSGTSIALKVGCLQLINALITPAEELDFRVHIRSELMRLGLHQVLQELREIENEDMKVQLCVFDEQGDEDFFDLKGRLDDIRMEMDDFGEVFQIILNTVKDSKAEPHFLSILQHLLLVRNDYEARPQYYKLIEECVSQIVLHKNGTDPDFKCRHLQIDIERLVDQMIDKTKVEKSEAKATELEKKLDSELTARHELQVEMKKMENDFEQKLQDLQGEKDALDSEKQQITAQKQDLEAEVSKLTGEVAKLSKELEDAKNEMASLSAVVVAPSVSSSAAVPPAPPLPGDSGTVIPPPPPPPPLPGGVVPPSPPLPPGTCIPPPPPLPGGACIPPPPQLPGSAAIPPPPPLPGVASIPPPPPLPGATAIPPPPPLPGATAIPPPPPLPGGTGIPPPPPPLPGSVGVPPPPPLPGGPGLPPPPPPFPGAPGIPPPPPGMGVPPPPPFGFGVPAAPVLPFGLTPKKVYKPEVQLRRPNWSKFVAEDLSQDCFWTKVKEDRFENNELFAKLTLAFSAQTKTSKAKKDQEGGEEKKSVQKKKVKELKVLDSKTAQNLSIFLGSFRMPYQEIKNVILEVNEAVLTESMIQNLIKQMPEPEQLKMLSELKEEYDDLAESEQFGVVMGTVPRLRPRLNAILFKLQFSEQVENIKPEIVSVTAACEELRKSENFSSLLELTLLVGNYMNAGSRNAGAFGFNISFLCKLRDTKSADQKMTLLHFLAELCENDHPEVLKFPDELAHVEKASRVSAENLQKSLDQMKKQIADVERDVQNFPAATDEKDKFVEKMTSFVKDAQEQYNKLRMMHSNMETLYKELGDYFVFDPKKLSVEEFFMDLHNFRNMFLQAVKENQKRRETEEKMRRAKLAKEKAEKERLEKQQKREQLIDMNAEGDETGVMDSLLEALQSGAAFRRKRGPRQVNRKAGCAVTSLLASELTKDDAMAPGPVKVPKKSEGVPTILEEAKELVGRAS
UniProt Q9NSV4: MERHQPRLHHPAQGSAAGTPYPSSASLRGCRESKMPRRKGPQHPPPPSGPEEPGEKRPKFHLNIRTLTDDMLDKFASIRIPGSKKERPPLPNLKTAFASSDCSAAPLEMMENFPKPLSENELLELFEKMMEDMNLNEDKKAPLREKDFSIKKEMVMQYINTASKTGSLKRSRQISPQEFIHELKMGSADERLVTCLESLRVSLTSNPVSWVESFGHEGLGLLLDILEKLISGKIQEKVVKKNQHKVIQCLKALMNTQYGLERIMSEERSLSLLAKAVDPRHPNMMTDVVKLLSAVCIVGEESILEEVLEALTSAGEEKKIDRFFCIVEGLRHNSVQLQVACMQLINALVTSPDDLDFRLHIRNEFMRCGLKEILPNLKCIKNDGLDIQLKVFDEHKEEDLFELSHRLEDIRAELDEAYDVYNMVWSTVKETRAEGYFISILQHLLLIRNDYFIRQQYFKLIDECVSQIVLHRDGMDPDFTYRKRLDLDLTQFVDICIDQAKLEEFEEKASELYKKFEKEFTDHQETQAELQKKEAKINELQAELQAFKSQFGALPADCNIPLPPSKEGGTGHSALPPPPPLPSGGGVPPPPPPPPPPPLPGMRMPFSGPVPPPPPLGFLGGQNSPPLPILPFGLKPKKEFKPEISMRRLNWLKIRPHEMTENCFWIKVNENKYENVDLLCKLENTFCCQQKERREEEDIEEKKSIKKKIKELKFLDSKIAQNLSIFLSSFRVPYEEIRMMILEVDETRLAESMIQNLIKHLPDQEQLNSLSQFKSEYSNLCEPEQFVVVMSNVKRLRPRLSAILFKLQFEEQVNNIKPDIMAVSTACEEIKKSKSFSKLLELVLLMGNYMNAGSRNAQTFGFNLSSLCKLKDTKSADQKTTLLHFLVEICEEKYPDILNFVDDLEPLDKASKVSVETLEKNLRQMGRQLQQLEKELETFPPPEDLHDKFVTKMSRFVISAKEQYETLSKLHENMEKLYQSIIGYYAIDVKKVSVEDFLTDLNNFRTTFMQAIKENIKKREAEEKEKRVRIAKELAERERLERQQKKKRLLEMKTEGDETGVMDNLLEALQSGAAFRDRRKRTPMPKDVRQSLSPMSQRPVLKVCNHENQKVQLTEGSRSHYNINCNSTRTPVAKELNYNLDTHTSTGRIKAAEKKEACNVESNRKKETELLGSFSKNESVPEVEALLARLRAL
UniProt O60610: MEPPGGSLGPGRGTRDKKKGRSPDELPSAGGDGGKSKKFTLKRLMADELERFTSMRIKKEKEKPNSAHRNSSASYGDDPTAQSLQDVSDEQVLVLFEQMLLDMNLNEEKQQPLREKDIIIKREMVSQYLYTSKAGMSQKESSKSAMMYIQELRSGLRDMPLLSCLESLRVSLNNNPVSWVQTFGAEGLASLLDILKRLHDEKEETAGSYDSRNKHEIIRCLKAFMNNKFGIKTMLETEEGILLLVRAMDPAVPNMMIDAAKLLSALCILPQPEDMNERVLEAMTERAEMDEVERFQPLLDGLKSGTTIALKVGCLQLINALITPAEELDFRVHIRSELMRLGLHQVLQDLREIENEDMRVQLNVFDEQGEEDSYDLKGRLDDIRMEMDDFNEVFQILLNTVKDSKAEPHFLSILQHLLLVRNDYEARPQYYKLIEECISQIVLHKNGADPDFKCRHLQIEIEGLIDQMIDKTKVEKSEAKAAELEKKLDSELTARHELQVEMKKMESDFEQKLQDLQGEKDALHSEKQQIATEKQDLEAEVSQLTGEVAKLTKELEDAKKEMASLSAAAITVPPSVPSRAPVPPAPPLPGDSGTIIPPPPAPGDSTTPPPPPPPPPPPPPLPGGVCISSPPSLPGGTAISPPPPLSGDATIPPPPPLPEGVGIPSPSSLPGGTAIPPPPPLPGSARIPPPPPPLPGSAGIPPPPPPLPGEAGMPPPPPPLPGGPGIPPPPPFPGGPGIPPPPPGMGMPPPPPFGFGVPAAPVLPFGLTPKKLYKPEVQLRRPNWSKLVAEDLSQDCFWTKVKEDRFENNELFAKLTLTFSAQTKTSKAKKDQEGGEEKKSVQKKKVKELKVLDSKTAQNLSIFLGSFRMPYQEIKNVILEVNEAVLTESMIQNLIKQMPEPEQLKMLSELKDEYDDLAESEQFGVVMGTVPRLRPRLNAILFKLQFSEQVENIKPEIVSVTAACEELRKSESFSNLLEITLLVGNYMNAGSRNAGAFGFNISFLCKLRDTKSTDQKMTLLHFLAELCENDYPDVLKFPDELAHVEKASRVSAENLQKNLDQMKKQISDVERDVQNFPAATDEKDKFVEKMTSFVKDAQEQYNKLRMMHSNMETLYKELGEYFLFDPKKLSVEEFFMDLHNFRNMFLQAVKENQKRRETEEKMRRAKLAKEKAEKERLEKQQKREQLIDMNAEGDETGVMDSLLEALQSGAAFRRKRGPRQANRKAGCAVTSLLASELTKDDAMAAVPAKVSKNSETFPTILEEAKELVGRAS

[3] = target: mDia2-3xFLAG full length (murine) (UniProt Q9Z207); test: as above
[4] = target: FLAG-tagged murine mDia2 (murine) (UniProt Q9Z207); test: co-IP; 293T cells transiently transfected with HA-tagged mDia1 and FLAG- or 3xFLAG-tagged mDia2 constructs (full length or truncated); lysate in IP buffer (50mM HEPES pH7.6, 250mM NaCl, 5mM EDTA, 0.1% NP40) on anti-HA or anti-FLAG magnetic beads, 4°C overnight, 6 washes; Western blot
[5] = target: T1, mDia2 DAD domain (amino acids 1033-1171) tagged with C-terminal 3xFLAG (murine); test: as above
[6] = target: mDia2-3xFLAG full length (murine) (UniProt Q9Z207); test: as above
[7] = target: GST-mDia2 full-length (murine) (UniProt Q9Z207); test: pull-down; GST fusion proteins on glutathione agarose incubated with lysate of E. coli expressing His-mDia1 constructs, 4°C 2 hours; 5 washes with NETN100 (100μM EDTA, 20mM Tris, 100mM NaCl); Western blot; only the target purified
GST-mDia2-DAD (murine) = target: T2, GST-mDia2-DAD (murine) (UniProt Q9Z207); test: as above
T2 sequence: T1 sequence

[8] = target: endogenous mDia2 (human (endogenous in 293T and K562)) (UniProt Q9NSV4); test: co-IP; endogenous proteins in 293T lysate (1-1.5mg total protein), 2.5μg anti-DIAPH1 or anti-DIAPH3 at 4°C overnight, protein A/G magnetic beads; Western blot; also after serum starvation for 6hr with or without 20% serum added back
[9] = target: endogenous mDia1 (human (endogenous in 293T and K562)) (UniProt O60610); test: co-IP; endogenous proteins in K562 cells, anti-mDia1 antibody; Western blot
[10] = target: HA-tagged murine mDia1 full length (murine) (UniProt O08808); test: co-IP; 293T cells overexpressing HA-mDia1 or mDia2-3xFLAG; anti-HA or anti-FLAG magnetic beads; endogenous partner detected by Western blot; also after IMM-01 or SMIFH2 for 24 hours
[11] = target: endogenous mDia1 (human (endogenous in 293T and K562)) (UniProt O60610); test: co-IP; endogenous proteins in 293T lysate (1-1.5mg total protein), 2.5μg anti-DIAPH1 or anti-DIAPH3 at 4°C overnight, protein A/G magnetic beads; Western blot; also after serum starvation for 6hr with or without 20% serum added back
[12] = target: HA-tagged mDia1 GBD-DID domain (amino acids 1-567) (murine) (UniProt O08808); test: co-IP; 293T cells transiently transfected with HA-tagged mDia1 and FLAG- or 3xFLAG-tagged mDia2 constructs (full length or truncated); lysate in IP buffer (50mM HEPES pH7.6, 250mM NaCl, 5mM EDTA, 0.1% NP40) on anti-HA or anti-FLAG magnetic beads, 4°C overnight, 6 washes; Western blot

Substance: FLAG-tagged murine mDia2 (from UniProt Q9Z207 1-1171)
binding [1]: binds

Substance: His-mDia1 full-length (from UniProt O08808 1-1255)
binding [7]: binds
binding (GST-mDia2-DAD (murine)): binds

Substance: His-mDia1-GBD-DID (from UniProt O08808 1-567) (domain or fragment)
binding [7]: binds
binding (GST-mDia2-DAD (murine)): binds

Substance: endogenous mDia1 (from UniProt O60610 1-1272)
binding [8]: binds

Second part, the substance after the results:

binding [2]: binds
binding [3]: binds
Substance: HA-tagged mDia1 GBD-DID domain (amino acids 1-567) (from UniProt O08808 1-567) (domain or fragment)

binding [4]: binds
binding [5]: binds
binding [6]: binds
Substance: HA-tagged murine mDia1 full length (from UniProt O08808 1-1255)

binding [9]: binds
binding [10]: binds
binding [11]: binds
Substance: endogenous mDia2 (from UniProt Q9NSV4 1-1193)

binding [12]: binds
Substance: mDia2-3xFLAG full length (from UniProt Q9Z207 1-1171)

— PMC10756686
